From patent EP0469010B1, “COSMETIC COMPOSITION” (priority 1989, dated 1990)
At least one structure is not confirmed: it was looked up by name or label, or the drawing left a doubt.

How the values were obtained:
Male androgenic alopecia = assay: Clinical pilot study of topical sodium sucrose sulfate in alopecia: male androgenic alopecia; assay type: in vivo, human; conditions: 4 patients
Description: During a 11 month period (April 1989 to March 1990), a total of 50 patients participated in a pilot study, evaluating the effect of the sodium salt of sucrose sulfate administered topically for the treatment of alopecia. The test preparation was a 3% solution of Na-sucrose sulfate in a vehicle of 50% water/25% ethanol/25% propylene glycol (w/w), dispensed in 35 ml bottles with a sponge for topical administration on the scalp. The test preparation was applied morning and evening on the scalp, preferably on areas of partial or total alopecia. In average the patients have been using one bottle per month. All patients were recruited by one dermatologist, and the effect of treatment was evaluated clinically by the same investigator, at monthly clinic visits. The clinical effect was classified as very good in cases of definite cosmetic benefit, as good in cases of significant regrowth of new hair, but not to an extend that is cosmetically apparent at distance, and as no effect in cases of no or only marginal regrowth of hair. Male androgenic alopecia was the clinical diagnosis in 35 patients, their age ranging from 17 years to 50 years. Period of treatment was about 3 months in 15 case, about 6 months in 10 cases, and about 9 months in 10 cases.

Ludwig type alopecia = assay: Clinical pilot study of topical sodium sucrose sulfate in alopecia: Ludwig type alopecia in females; assay type: in vivo, human; conditions: the 2 females with only a marginal effect of the test drug
Description: The test preparation was a 3% solution of Na-sucrose sulfate in a vehicle of 50% water/25% ethanol/25% propylene glycol (w/w), dispensed in 35 ml bottles with a sponge for topical administration on the scalp. The test preparation was applied morning and evening on the scalp, preferably on areas of partial or total alopecia. In average the patients have been using one bottle per month.
All patients were recruited by one dermatologist, and the effect of treatment was evaluated clinically by the same investigator, at monthly clinic visits.
The clinical effect was classified as very good in cases of definite cosmetic benefit, as good in cases of significant regrowth of new hair, but not to an extend that is cosmetically apparent at distance, and as no effect in cases of no or only marginal regrowth of hair.
5 Females aged from 20-49 years with Ludwig type alopecia were treated with the test drug for 6-8 months.

Compound: Nc1cc(N2CCCCC2)nc(N)[n+]1[O-] [minoxidil, reference compound]
- outcome of previous treatment (Male androgenic alopecia; age group 17-25, previous treatment): failed
- outcome of previous treatment (Male androgenic alopecia; age group 25-40, previous treatment): failed
- response on previous treatment compared with the test drug (Ludwig type alopecia): better response
